{"source": "the supplement of paper PMC8728848", "binders": {"B1": {"name": "Mermaid1 (Stilbonema majum) (protein)", "chain": "MGSSHHHHHHSSGLVPRGSHMAASGWLRSPQGTVVKLYRRSLSWSKADEFCKDVDGRLVVDRTADMHLFLIKNVLKEKKSRVWVGLRRTAPHSRTWIWSDGTRQNEDDLDANLWLRDEPNDAAGEEECALFMYSPWEKAWGLNDYLCRGGCRSYQFICEKWIR"}}, "assay_in_all_cases": "glycan array binding signal (z-score within array); higher = stronger binding", "settings_in_all_cases": "glycan notation: IUPAC condensed, linker removed", "key": {"[1]": {"target": "Fuc(a1-2)Gal6S(b1-3)GlcNAc6S", "in_short": "(§1)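 The binding signal is a Z-score computed within each array. Data were drawn from 3228 arrays in the Consortium for Functional Glycomics database, restricted to those with a known protein sequence. Scores were averaged over arrays of the same protein sequence at different concentrations or buffers, and over linkers, and negative values can be taken as non-binding.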"}, "[2]": {"target": "Fuc(a1-2)Gal6S(b1-4)Glc", "in_short": "as §1"}, "[3]": {"target": "Fuc(a1-2)Gal6S(b1-4)Glc6S", "in_short": "as §1"}, "[4]": {"target": "Fuc(a1-2)[Gal(a1-3)]Gal", "in_short": "as §1"}, "[5]": {"target": "Fuc(a1-2)[Gal(a1-3)]Gal(b1-3)GalNAc", "in_short": "as §1"}, "[6]": {"target": "Fuc(a1-2)[Gal(a1-3)]Gal(b1-3)GalNAc(b1-3)Gal(a1-4)Gal(b1-4)Glc", "in_short": "as §1"}, "[7]": {"target": "Fuc(a1-2)[Gal(a1-3)]Gal(b1-3)GlcNAc", "in_short": "as §1"}, "[8]": {"target": "Fuc(a1-2)[Gal(a1-3)]Gal(b1-3)GlcNAc(b1-2)Man(a1-3)[Fuc(a1-2)[Gal(a1-3)]Gal(b1-3)GlcNAc(b1-2)Man(a1-6)]Man(b1-4)GlcNAc(b1-4)GlcNAc", "in_short": "as §1"}, "[9]": {"target": "Fuc(a1-2)[Gal(a1-3)]Gal(b1-3)GlcNAc(b1-2)Man(a1-3)[Fuc(a1-2)[Gal(a1-3)]Gal(b1-3)GlcNAc(b1-2)Man(a1-6)]Man(b1-4)GlcNAc(b1-4)[Fuc(a1-6)]GlcNAc", "in_short": "as §1"}, "[10]": {"target": "Fuc(a1-2)[Gal(a1-3)]Gal(b1-3)GlcNAc(b1-3)GalNAc", "in_short": "as §1"}, "[11]": {"target": "Fuc(a1-2)[Gal(a1-3)]Gal(b1-3)GlcNAc(b1-6)GalNAc", "in_short": "as §1"}, "[12]": {"target": "Fuc(a1-2)[Gal(a1-3)]Gal(b1-4)Glc", "in_short": "as §1"}, "[13]": {"target": "Fuc(a1-2)[Gal(a1-3)]Gal(b1-4)GlcNAc", "in_short": "as §1"}, "[14]": {"target": "Fuc(a1-2)[Gal(a1-3)]Gal(b1-4)GlcNAc(b1-2)Man", "in_short": "as §1"}, "[15]": {"target": "Fuc(a1-2)[Gal(a1-3)]Gal(b1-4)GlcNAc(b1-2)Man(a1-3)[Fuc(a1-2)[Gal(a1-3)]Gal(b1-4)GlcNAc(b1-2)Man(a1-6)]Man(b1-4)GlcNAc(b1-4)GlcNAc", "in_short": "as §1"}, "[16]": {"target": "Fuc(a1-2)[Gal(a1-3)]Gal(b1-4)GlcNAc(b1-2)Man(a1-3)[Fuc(a1-2)[Gal(a1-3)]Gal(b1-4)GlcNAc(b1-2)Man(a1-6)]Man(b1-4)GlcNAc(b1-4)[Fuc(a1-6)]GlcNAc", "in_short": "as §1"}, "[17]": {"target": "Fuc(a1-2)[Gal(a1-3)]Gal(b1-4)GlcNAc(b1-3)GalNAc", "in_short": "as §1"}, "[18]": {"target": "Fuc(a1-2)[Gal(a1-3)]Gal(b1-4)GlcNAc(b1-3)[Fuc(a1-2)[Gal(a1-3)]Gal(b1-4)GlcNAc(b1-6)]GalNAc", "in_short": "as §1"}, "[19]": {"target": "Fuc(a1-2)[Gal(a1-3)]Gal(b1-4)GlcNAc(b1-6)GalNAc", "in_short": "as §1"}, "[20]": {"target": "Fuc(a1-2)[Gal(a1-3)]Gal(b1-4)[Fuc(a1-3)]Glc", "in_short": "as §1"}, "[21]": {"target": "Fuc(a1-2)[Gal(a1-3)]Gal(b1-4)[Fuc(a1-3)]GlcNAc", "in_short": "as §1"}, "[22]": {"target": "Fuc(a1-2)[Gal(a1-3)]Gal(b1-4)[Fuc(a1-3)]GlcNAc(b1-3)GalNAc", "in_short": "as §1"}, "[23]": {"target": "Fuc(a1-2)[Gal(a1-4)]Gal(b1-4)GlcNAc", "in_short": "as §1"}, "[24]": {"target": "Fuc(a1-2)[GalNAc(a1-3)]Gal", "in_short": "as §1"}, "[25]": {"target": "Fuc(a1-2)[GalNAc(a1-3)]Gal(b1-3)GalNAc(a1-3)[Fuc(a1-2)]Gal(b1-4)GlcNAc", "in_short": "as §1"}, "[26]": {"target": "Fuc(a1-2)[GalNAc(a1-3)]Gal(b1-3)GalNAc(b1-3)Gal(a1-4)Gal(b1-4)Glc", "in_short": "as §1"}, "[27]": {"target": "Fuc(a1-2)[GalNAc(a1-3)]Gal(b1-3)GlcNAc", "in_short": "as §1"}, "[28]": {"target": "Fuc(a1-2)[GalNAc(a1-3)]Gal(b1-3)GlcNAc(b1-2)Man(a1-3)[Fuc(a1-2)[GalNAc(a1-3)]Gal(b1-3)GlcNAc(b1-2)Man(a1-6)]Man(b1-4)GlcNAc(b1-4)GlcNAc", "in_short": "as §1"}, "[29]": {"target": "Fuc(a1-2)[GalNAc(a1-3)]Gal(b1-3)GlcNAc(b1-2)Man(a1-3)[Fuc(a1-2)[GalNAc(a1-3)]Gal(b1-3)GlcNAc(b1-2)Man(a1-6)]Man(b1-4)GlcNAc(b1-4)[Fuc(a1-6)]GlcNAc", "in_short": "as §1"}, "[30]": {"target": "Fuc(a1-2)[GalNAc(a1-3)]Gal(b1-3)GlcNAc(b1-3)GalNAc", "in_short": "as §1"}, "[31]": {"target": "Fuc(a1-2)[GalNAc(a1-3)]Gal(b1-3)GlcNAc(b1-6)GalNAc", "in_short": "as §1"}, "[32]": {"target": "Fuc(a1-2)[GalNAc(a1-3)]Gal(b1-4)Glc", "in_short": "as §1"}, "[33]": {"target": "Fuc(a1-2)[GalNAc(a1-3)]Gal(b1-4)GlcNAc", "in_short": "as §1"}, "[34]": {"target": "Fuc(a1-2)[GalNAc(a1-3)]Gal(b1-4)GlcNAc(b1-2)Man", "in_short": "as §1"}, "[35]": {"target": "Fuc(a1-2)[GalNAc(a1-3)]Gal(b1-4)GlcNAc(b1-2)Man(a1-3)[Fuc(a1-2)[GalNAc(a1-3)]Gal(b1-4)GlcNAc(b1-2)Man(a1-6)]Man(b1-4)GlcNAc(b1-4)GlcNAc", "in_short": "as §1"}, "[36]": {"target": "Fuc(a1-2)[GalNAc(a1-3)]Gal(b1-4)GlcNAc(b1-2)Man(a1-3)[Fuc(a1-2)[GalNAc(a1-3)]Gal(b1-4)GlcNAc(b1-2)Man(a1-6)]Man(b1-4)GlcNAc(b1-4)[Fuc(a1-6)]GlcNAc", "in_short": "as §1"}, "[37]": {"target": "Fuc(a1-2)[GalNAc(a1-3)]Gal(b1-4)GlcNAc(b1-3)Gal(b1-4)GlcNAc", "in_short": "as §1"}, "[38]": {"target": "Fuc(a1-2)[GalNAc(a1-3)]Gal(b1-4)GlcNAc(b1-3)Gal(b1-4)GlcNAc(b1-3)Gal(b1-4)GlcNAc", "in_short": "as §1"}, "[39]": {"target": "Fuc(a1-2)[GalNAc(a1-3)]Gal(b1-4)GlcNAc(b1-3)GalNAc", "in_short": "as §1"}, "[40]": {"target": "Fuc(a1-2)[GalNAc(a1-3)]Gal(b1-4)GlcNAc(b1-3)[Fuc(a1-2)[GalNAc(a1-3)]Gal(b1-4)GlcNAc(b1-6)]GalNAc", "in_short": "as §1"}, "[41]": {"target": "Fuc(a1-2)[GalNAc(a1-3)]Gal(b1-4)GlcNAc(b1-6)GalNAc", "in_short": "as §1"}, "[42]": {"target": "Fuc(a1-2)[GalNAc(a1-3)]Gal(b1-4)[Fuc(a1-3)]GlcNAc", "in_short": "as §1"}, "[43]": {"target": "Fuc(a1-2)[GalNAc(a1-3)]Gal(b1-4)[Fuc(a1-3)]GlcNAc(b1-3)GalNAc", "in_short": "as §1"}, "[44]": {"target": "Fuc(a1-2)[GalNAc(a1-4)]Gal(b1-4)GlcNAc", "in_short": "as §1"}, "[45]": {"target": "Fuc(a1-2)[GalNAc(b1-3)]Gal", "in_short": "as §1"}}, "note": "Some of the results follow."}
{"binder": "B1", "values": [{"measurement": "glycan array binding signal (z-score)", "setting": "[1]", "value": 1.58}, {"measurement": "glycan array binding signal (z-score)", "setting": "[2]", "value": -0.65}, {"measurement": "glycan array binding signal (z-score)", "setting": "[3]", "value": -0.466}, {"measurement": "glycan array binding signal (z-score)", "setting": "[4]", "value": -0.624}, {"measurement": "glycan array binding signal (z-score)", "setting": "[5]", "value": 3.08}, {"measurement": "glycan array binding signal (z-score)", "setting": "[6]", "value": -0.881}, {"measurement": "glycan array binding signal (z-score)", "setting": "[7]", "value": 0.109}, {"measurement": "glycan array binding signal (z-score)", "setting": "[8]", "value": -0.403}, {"measurement": "glycan array binding signal (z-score)", "setting": "[9]", "value": -0.259}, {"measurement": "glycan array binding signal (z-score)", "setting": "[10]", "value": 0.151}, {"measurement": "glycan array binding signal (z-score)", "setting": "[11]", "value": -0.589}, {"measurement": "glycan array binding signal (z-score)", "setting": "[12]", "value": -0.647}, {"measurement": "glycan array binding signal (z-score)", "setting": "[13]", "value": -0.508}, {"measurement": "glycan array binding signal (z-score)", "setting": "[14]", "value": -0.732}, {"measurement": "glycan array binding signal (z-score)", "setting": "[15]", "value": 0.198}, {"measurement": "glycan array binding signal (z-score)", "setting": "[16]", "value": -0.514}, {"measurement": "glycan array binding signal (z-score)", "setting": "[17]", "value": 0.09}, {"measurement": "glycan array binding signal (z-score)", "setting": "[18]", "value": -0.741}, {"measurement": "glycan array binding signal (z-score)", "setting": "[19]", "value": -0.122}, {"measurement": "glycan array binding signal (z-score)", "setting": "[20]", "value": 0.038}, {"measurement": "glycan array binding signal (z-score)", "setting": "[21]", "value": -0.646}, {"measurement": "glycan array binding signal (z-score)", "setting": "[22]", "value": -0.262}, {"measurement": "glycan array binding signal (z-score)", "setting": "[23]", "value": 1.5}, {"measurement": "glycan array binding signal (z-score)", "setting": "[24]", "value": -0.62}, {"measurement": "glycan array binding signal (z-score)", "setting": "[25]", "value": -0.5}, {"measurement": "glycan array binding signal (z-score)", "setting": "[26]", "value": -0.659}, {"measurement": "glycan array binding signal (z-score)", "setting": "[27]", "value": -0.629}, {"measurement": "glycan array binding signal (z-score)", "setting": "[28]", "value": -0.816}, {"measurement": "glycan array binding signal (z-score)", "setting": "[29]", "value": -0.569}, {"measurement": "glycan array binding signal (z-score)", "setting": "[30]", "value": -0.713}, {"measurement": "glycan array binding signal (z-score)", "setting": "[31]", "value": -0.028}, {"measurement": "glycan array binding signal (z-score)", "setting": "[32]", "value": -0.74}, {"measurement": "glycan array binding signal (z-score)", "setting": "[33]", "value": -0.299}, {"measurement": "glycan array binding signal (z-score)", "setting": "[34]", "value": 0.26}, {"measurement": "glycan array binding signal (z-score)", "setting": "[35]", "value": -0.536}, {"measurement": "glycan array binding signal (z-score)", "setting": "[36]", "value": -0.084}, {"measurement": "glycan array binding signal (z-score)", "setting": "[37]", "value": -0.33}, {"measurement": "glycan array binding signal (z-score)", "setting": "[38]", "value": 0.027}, {"measurement": "glycan array binding signal (z-score)", "setting": "[39]", "value": -0.758}, {"measurement": "glycan array binding signal (z-score)", "setting": "[40]", "value": -0.321}, {"measurement": "glycan array binding signal (z-score)", "setting": "[41]", "value": -0.173}, {"measurement": "glycan array binding signal (z-score)", "setting": "[42]", "value": 0.541}, {"measurement": "glycan array binding signal (z-score)", "setting": "[43]", "value": 2.43}, {"measurement": "glycan array binding signal (z-score)", "setting": "[44]", "value": 0.015}, {"measurement": "glycan array binding signal (z-score)", "setting": "[45]", "value": 0.226}]}
